Laboratory results reported in US9085523B2, “Compound for treating cartilage disorders” (ONO PHARMACEUTICAL CO., LTD., priority 2011, dated 2015).
At least one compound was matched to its structure with a doubt left.

Test system: knee cartilage defect model
Test: Evaluation of cartilage tissue score in knee cartilage defect model
Assay type: in vivo
Conditions: rabbit, intra-articular, bi-weekly, 6 times; vs vehicle, Steel test
Experimental: Knee cartilage defect model was prepared by the following method. Female Japanese white domestic rabbit (2.5-3.5 kg) was anesthetized by the administration of sodium pentobarbital (30 mg/kg) through ear vein. The hair around knee articulations of both hind legs was removed and disinfected with iodine tincture. After the incision of the skin of an inert right hind leg, the boundary between patella ligament and articular capsule was incised in dorsal position. Patella was dislocated outward to expose trochlea femoris largely and medial condyle of femur was drilled with a dental drill to prepare small hole (diameter: 4 mm, depth: about 2 mm). The surgical incision was sutured and the surgical site was disinfected with iodine tincture. Femur of a left knee or both knees of pseudo-operation group was only exposed by the same operation without preparing small hole. To avoid infection disease, 100,000 units of benzylpenicilline procaine/125 mg titers of dihydrostreptomycin sulfate/I mg of procaine hydrochloride per rabbit was administered in gluteal muscle. A test compound (12-200 μg/knee, calculated in Compound A which is active form of test compounds) and its medium (5% glucose solution containing 0.05% Tween 80) were administered inside articular cavity of right knee of rabbit at bi-weekly intervals, 6 times for total, and from a week after operation. […]

SMILES: CCCCCCCCCCCCCCCOc1cccc(C(=O)OCCOC(=O)CCC/C=C\C[C@@H]2[C@@H](/C=C/C[C@H](O)C3(CC)CCC3)[C@H](O)C[C@H]2Cl)c1 [Compound 4-1, 2-{[(5Z)-7-{(1R,2R,3R,5R)-5-chloro-2-[(1E,4S)-4-(1-ethylcyclobutyl)-4-hydroxy-1-buten-1-yl]-3-hydroxycyclopentyl}-5-heptenoyl]oxy}ethyl 3-(pentadecyloxy)benzoate]
- cartilage tissue score: significantly improved

SMILES: CCCCCCCCCCCCCCCOc1ccc(C(=O)OCCOC(=O)CCC/C=C\C[C@@H]2[C@@H](/C=C/C[C@H](O)C3(CC)CCC3)[C@H](O)C[C@H]2Cl)cc1 [Compound 4-11, 2-{[(5Z)-7-{(1R,2R,3R,5R)-5-chloro-2-[(1E,4S)-4-(1-ethylcyclobutyl)-4-hydroxy-1-buten-1-yl]-3-hydroxycyclopentyl}-5-heptenoyl]oxy}ethyl 4-(pentadecyloxy)benzoate]
- cartilage tissue score: significantly improved
